Results on 26 molecules are retold here after PubChem BioAssay AID328 (DTP/NCI, 2004).

The list does not hold the whole screen: it is rich in T/C values a quarter to a half above the control, in often repeated tests (any T/C) and in doses without a T/C. Further doses and runs are listed elsewhere. T/C gives the treated animals as a percentage of the vehicle group. Some doses have a count of surviving animals in place of a T/C: the source holds a T/C of zero for them, seemingly a mark for toxic or unscored doses. Some survivor counts are full or nearly so, which does not show that the dose was tolerated: survival well below the control is almost never listed, so the zero probably covers shortened survival too. Survivors were counted at the toxicity check, usually on the fifth day, unless a day is given; later deaths do not show. Schedules are NCI's codes, taken here to give the interval after Q, in days (D) or hours (H), and the number of doses after X. Some molecules as drawn cover several salts, stereoisomers or complexes of the source; a dose is that of the sample tested. Some doses were run more than once; their values stand side by side, smallest first. Where survival is the endpoint, the PubChem record calls one and a half times the control and up active, and a quarter to a half above the control has no call in these data; cut-offs in other NCI protocols can differ. Some T/C values carry the count of animals alive at the toxicity check (mostly the fifth day); without a count, all were alive then. Positions of bridges follow the written chain, without caps; N, C: chain ends. Non-standard residues stand in square brackets, D forms with d. Residues, ends and D or L forms follow the SMILES beside them. ξ: configuration not given here. *: point of attachment. NMeV = CN[CH](C(=O)O)C(C)C; Cbz = O=C(OCc1ccccc1)*; ξK = NCCCCC(N)C(=O)O; Sar = CNCC(=O)O

This test has as its system BDF1 mice, P388 leukemia ip, median survival T/C. The experiment in a line: NCI In Vivo Anticancer Drug Screen. Data for tumor model P388 Leukemia (intraperitoneal) in B6D2F1 (BDF1) mice. The note with it: T/C endpoint: median survival time, higher T/C = longer survival. The method in brief: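 Antitumour effect was judged in vivo: survival in drug-treated mice, normalised to that of vehicle-dosed controls, gives the reported T/C.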

The mark [1] stands for this setting: dose: 50.0 mg/kg/injection, schedule: Q01DX009 (ip), vehicle: saline with Tween-80.
[2] abbreviates: dose: 100.0 mg/kg/injection, schedule: Q01DX009 (ip), vehicle: saline with Tween-80.
Where [3] appears, read: dose: 200.0 mg/kg/injection, schedule: Q01DX009 (ip), vehicle: saline with Tween-80.
The mark [4] stands for this setting: dose: 200.0 mg/kg/injection, schedule: Q04DX003 (ip), vehicle: saline with Tween-80.
Where [5] appears, read: dose: 400.0 mg/kg/injection, schedule: Q04DX003 (ip), vehicle: saline with Tween-80.
The mark [6] stands for this setting: dose: 20.0 mg/kg/injection, schedule: Q01DX009 (ip), vehicle: saline.
The mark [7] stands for this setting: dose: 200.0 mg/kg/injection, schedule: Q04DX003 (ip), vehicle: saline.

As to `O=C(Nc1cccc2c(OC(=O)C(Cl)Cl)c(N=Nc3ccc(S(=O)(=O)Nc4nccs4)cc3)cc(N=Nc3ccc(S(=O)(=O)Nc4nccs4)cc3)c12)C(Cl)Cl` (tested in a mixture with another compound), the T/C (dose: 12.5 mg/kg/injection, schedule: Q01DX009 (ip), vehicle: saline with Tween-80) was 148 % of control; the T/C (dose: 25.0 mg/kg/injection, schedule: Q01DX009 (ip), vehicle: saline with Tween-80) is 129 % of control; the T/C under setting [3] was 137 % of control. In addition, the survivor count reads like this: under setting [1], 5 of 6; under setting [2], 1 of 6; (dose: 200.0 mg/kg/injection, schedule: Q01DX005 (ip), vehicle: saline with Tween-80) 3 of 5.

For the molecule `Nc1nc(=S)c2ncn(C3OC(COC(=O)c4ccccc4)C(OC(=O)c4ccccc4)C3OC(=O)c3ccccc3)c2[nH]1` (stereo not given), the T/C was 125 % of control (dose: 8.8 mg/kg/injection, schedule: Q01DX009 (ip), vehicle: saline with Tween-80); 137 % of control (dose: 20.0 mg/kg/injection, schedule: Q01DX009 (ip), vehicle: saline with Tween-80); 140 % of control (dose: 22.0 mg/kg/injection, schedule: Q01DX009 (ip), vehicle: saline with Tween-80); 137 % of control (dose: 30.0 mg/kg/injection, schedule: Q01DX009 (ip), vehicle: saline with Tween-80); 136 % of control under setting [1]; 131 % of control (dose: 66.0 mg/kg/injection, schedule: Q04DX003 (ip), vehicle: saline). In addition, the T/C by setting is: (dose: 100.0 mg/kg/injection, schedule: Q04DX003 (ip), vehicle: saline with Tween-80) 136 % of control; (dose: 150.0 mg/kg/injection, schedule: Q04DX003 (ip), vehicle: saline) 136 % of control [5 of 6 alive]; under setting [4], 127 % of control. The survivor count under setting [5] is 6 of 6.

With `CC[N+](CC)(CC)CC.N#C/C([SH2+])=C(/[SH2+])C#N.N#C/C([SH2+])=C(/[SH2+])C#N.[Fe+2]`, the survivor count by setting is: (dose: 9.2 mg/kg/injection, schedule: Q01DX009 (ip), vehicle: saline with Tween-80) 3 of 6; (dose: 14.0 mg/kg/injection, schedule: Q01DX001 (ip), vehicle: saline with Tween-80) 3 of 6; (dose: 14.0 mg/kg/injection, schedule: Q01DX009 (ip), vehicle: saline with Tween-80) 1 of 6; (dose: 21.0 mg/kg/injection, schedule: Q01DX009 (ip), vehicle: saline with Tween-80) 0 of 6; (dose: 21.0 mg/kg/injection, schedule: Q04DX003 (ip), vehicle: saline with Tween-80) 4 of 6.

Turning to `CCOCCO`, the survivor count under setting [6] is 6 of 6.

Take `NCC(=O)NC(CCCCNC(=O)OCc1ccccc1)C(=O)O` (stereo not given) (H-Gly-[ξK](Cbz)-OH): the survivor count (dose: 50.0 mg/kg/injection, schedule: Q01DX005 (ip), vehicle: saline with Tween-80) is 0 of 5.

Consider `O=C(Nc1nncs1)c1ccncc1`, for which the T/C (dose: 100.0 mg/kg/injection, schedule: Q04DX002 (ip), vehicle: saline with Tween-80) was 136 % of control. Besides, the survivor count (dose: 600.0 mg/kg/injection, schedule: Q04DX002 (ip), vehicle: saline with Tween-80) was 6 of 6.

Turning to `COc1ccc(CNCCO)cc1`, the survivor count under setting [7] is recorded as 6 of 6.

For the molecule `COc1cc([N+](=O)[O-])c(C)cc1NCc1ccc(OC)c(OC)c1`, the survivor count runs as follows: (dose: 200.0 mg/kg/injection, schedule: Q01DX009 (ip), vehicle: saline) 6 of 6; (dose: 400.0 mg/kg/injection, schedule: Q01DX009 (ip), vehicle: saline) 6 of 6.

As to `C[C@H]1[C@H](C)CC[C@]2(CO)CC[C@]3(C)C(=CC[C@@H]4[C@@]5(C)CC[C@@H](O)C(C)(C)[C@@H]5CC[C@]43C)[C@H]12`, the T/C by setting is: (dose: 100.0 mg/kg/injection, schedule: Q01DX010 (ip), vehicle: acetone) 125 % of control; (dose: 200.0 mg/kg/injection, schedule: Q01DX010 (ip), vehicle: acetone) 125 % of control.

Regarding `C[n+]1c(/C=C/c2ccc(O)c3ncccc23)[se]c2ccccc21`, the survivor count (dose: 12.0 mg/kg/injection, schedule: Q01DX010 (ip), vehicle: acetone) is recorded as 6 of 6. Further, the T/C reads like this: (dose: 12.5 mg/kg/injection, schedule: Q01DX010 (ip), vehicle: saline) 127 % of control; (dose: 50.0 mg/kg/injection, schedule: Q01DX010 (ip), vehicle: saline) 140 % of control; (dose: 100.0 mg/kg/injection, schedule: Q01DX010 (ip), vehicle: saline) 127 % of control.

Turning to `N#CC1CCCC1=O` (stereo not given), the survivor count under setting [6] was 5 of 6.

Turning to `CCCCCCC(=O)NC1=C(N2CC2)C(=O)C(NC(=O)CCCCCC)=C(N2CC2)C1=O`, the T/C (dose: 12.5 mg/kg/injection, schedule: Q01DX009 (ip), vehicle: Klucel (hydroxypropylcellulose) (HPC)) was 141 % of control. Also, the survivor count (dose: 200.0 mg/kg/injection, schedule: Q01DX009 (ip), vehicle: Klucel (hydroxypropylcellulose) (HPC)) is 6 of 6.

Turning to `CC(=O)CC(C)=O.CC(=O)CC(C)=O.[CH3][Sn][CH3]`, the T/C (dose: 100.0 mg/kg/injection, schedule: Q01DX001 (ip), vehicle: Klucel (hydroxypropylcellulose) (HPC)) was 132 % of control.

As to `CCCCSc1cc(Cc2cc(C)ccc2O)c(O)c(Cc2cc(C)ccc2O)c1`, the T/C (dose: 200.0 mg/kg/injection, schedule: Q01DX009 (ip), vehicle: other) is 125 % of control.

For the molecule `C=CCc1ccccc1CNC(C)(C)CO`, the survivor count under setting [3] is given as 0 of 6.

Regarding `CCCCC(CC)COP(=O)(CC(CC)CCCC)OCC(CC)CCCC` (stereo not given), the survivor count is 6 of 6 under setting [1] and 4 of 6 under setting [2].

Take `Cc1cc(N(C)C)ccc1/C=C/c1ccnc2ccccc12`: for the setting “dose: 400.0 mg/kg/injection, schedule: Q04DX002 (ip), vehicle: saline with Tween-80”, the survivor count is 6 of 6.

`C#CCN(C)Cc1ccccc1`: the survivor count (dose: 400.0 mg/kg/injection, schedule: Q01DX010 (ip), vehicle: saline) is listed as 0 of 6.

On to `NC(=O)NC1OC(COC(=O)c2ccccc2)C(OC(=O)c2ccccc2)C1OC(=O)c1ccccc1` (stereo not given), for which the survivor count under setting [4] was 6 of 6.

On to `Cc1nnc2sc3c(Cl)c4nn5c(C)nnc5sc4c(Cl)c3nn12`, for which, under setting [3], the survivor count is listed as 3 of 6.

Regarding `N#Cc1c(SCc2ccc(Cl)cc2)nsc1Nc1ccc(Cl)cc1`, the survivor count was 0 of 6 under setting [2] and 0 of 6 under setting [3].

In the case of `O=S1(=O)C2CCCCC2(N2CCOCC2)C1c1ccccc1` (stereo not given), the T/C (dose: 400.0 mg/kg/injection, schedule: Q04DX003 (ip), vehicle: other) is 131 % of control.

On to `C[C@@H]1CC2=CC(=O)CC[C@@H]2[C@H]2CC[C@@]3(C)[C@@H](CC[C@]3(C)O)[C@@H]21`, for which the survivor count by setting is: under setting [4], 6 of 6; (dose: 400.0 mg/kg/injection, schedule: Q01DX009 (ip), vehicle: saline with Tween-80) 4 of 6; under setting [5], 2 of 6.

Turning to `NC(CSC(c1ccccc1)(c1ccccc1)c1ccc(Br)cc1)C(=O)O` (stereo not given), the T/C was 145 % of control (dose: 15.0 mg/kg/injection, schedule: Q04DX003 (ip), vehicle: Klucel (hydroxypropylcellulose) (HPC)); 125 % of control under setting [1]; 145 % of control (dose: 100.0 mg/kg/injection, schedule: Q04DX003 (ip), vehicle: saline); 140 % of control under setting [7]. Also, the survivor count by setting is: under setting [3], 5 of 6; under setting [7], 4 of 6.

As for `CC(C)C1NC(=O)C(N)C(C)OC(=O)C(C(C)C)N(C)C(=O)CN(C)C(=O)C2CCCN2C1=O` (stereo not given) (tested in a mixture with another compound) (H-TVP[Sar][NMeV]; ester 1-C; configuration not given here), the T/C reads like this: (dose: 0.3 mg/kg/injection, schedule: Q04DX003 (ip), vehicle: saline + alcohol) 145 % of control; (dose: 1.2 mg/kg/injection, schedule: Q04DX003 (ip), vehicle: saline + alcohol) 128 % of control. The survivor count runs as follows: (dose: 0.8 mg/kg/injection, schedule: Q01DX009 (ip), vehicle: saline + alcohol) 7 of 8; (dose: 2.4 mg/kg/injection, schedule: Q04DX003 (ip), vehicle: saline + alcohol) 3 of 8 and 5 of 8.

On to `C=CCn1cnc2c(=S)nc[nH]c21`, for which the survivor count is given as 6 of 6 under setting [1], 6 of 6 under setting [2] and 6 of 6 under setting [3].
